Measured values as given in PubChem BioAssay AID624297 (National Center for Advancing Translational Sciences (NCATS), 2012).
“And” between values parts separate entries of the source, which are not always exact repeats. Identical values can stand only once. In all, about 340,000 compounds went through this assay and about 6,200 (1.8%) were called active. The shares of active, inactive and inconclusive entries below differ from those in the screen. The call rests on the fitted dose curve; in most records, active means well fitted activation curve with a large enough effect; inconclusive means small, poorly fitted or top-dose-only effect; inactive means no such curve, though single readings can be large or run the other way. Potencies beside an inconclusive call are fits to weak or partial responses and may not hold up.

experiment: A quantitative high throughput screen for small molecules that induce DNA re-replication in SW480 colon adenocarcinoma cells.; further: nearly all actives have a fitted effect of over 55% in size; on re-replication activation: % of control where 0% means no effect; settings: Hoechst DNA content imaging, 48 h; re-replication activation: at 46.1 µM (top of the series) unless noted
Summary of the method: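 Per well, 250 cells were exposed to pinned compound for 48 hr. Nuclear DNA was visualised with Hoechst (40 min, 37 C) and total object intensity recorded by fluorescence scanning.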
Potency means the concentration at half of the fitted maximal effect.

Row | Structure (SMILES) | Potency | re-replication activation
1 | COc1ccc(NS(=O)(=O)c2cccc(C(=O)O)c2)cc1S(=O)(=O)N1CCCCC1 | inactive | –
2 | CC1CCc2c(sc3nc(C4CC4)nc(N4CCN(C(=O)c5ccco5)CC4)c23)C1 (stereo not given) | inconclusive: 16.4 µM [activator, single point] | –
3 | O=c1oc2cc(O)ccc2cc1-c1nc2c(s1)CCc1ccccc1-2 | active: 3.66 µM | –
4 | Cc1cc(N2CCCN(C)CC2)nc2cc(Cl)ccc12 | inconclusive: 29.1 µM [activator, single point] | –
5 | COc1cc(C(=O)Nc2ccc3c(c2)ncn3C(C)(C)C)cc(OC)c1OC | inconclusive: 2.31 µM [activator, partial curve, poor fit] | –
6 | COc1cc(C(=S)N2CCOCC2)ccc1OS(=O)(=O)c1ccc(Cl)cc1 | – | inconclusive: 62.3% [activator]
7 | CSc1nnc(-c2ccc(S(=O)(=O)N3CCOCC3)cc2)n1CC1CCCO1 (stereo not given) | inconclusive: 5.8 µM [activator, single point] | –
8 | COC(=O)c1cc(OC)c(OC)cc1NC(=O)c1c(-c2ccccc2Cl)noc1C | inconclusive: 18.4 µM [activator, partial curve] | –
9 | Brc1ccc2c(c1)OCCOCCOc1cc(Br)ccc1OCCOCCOCCO2 | inconclusive: 13 µM [activator, partial curve, poor fit] | –
10 | O=C(NNC(=O)c1cc2cc3ccccc3nc2s1)c1cccc(Cl)c1 | inconclusive: 29.1 µM [activator, single point] | –
11 | CCC(=O)Nc1cccc(-c2cn3cccc(C)c3n2)c1 | inconclusive: 6.51 µM [activator, single point] | –
12 | O=C(N/N=C/c1ccc(-c2ccc([N+](=O)[O-])cc2)o1)[C@H]1C[C@@H]1c1ccccc1 | active: 8.2 µM | –
13 | OCC[C@@H]1C[C@@H](O)[C@H](O)[C@@]2(CCc3ccccc3O2)O1 | inactive | –
14 | CCCCSc1nc2sc3c(c2c(=O)n1-c1ccc(OC)cc1)CCN(C)C3 | inconclusive: 29.1 µM [activator, single point] | –
15 | O=CN1CCCN(C(=O)CC2C(=O)NCCN2Cc2cccc(Oc3ccccc3)c2)CC1 (stereo not given) | inactive | –
16 | COc1ccc(N(C(=O)c2ccncc2)S(=O)(=O)c2cccs2)cc1 | inconclusive: 18.4 µM [activator, single point] | –
17 | CN(CCc1ccccc1)C(=O)c1ccc(NC(=O)Cc2cccc(NC(=O)C3CCN(C(=O)CCc4ccccc4)CC3)c2)cc1 | inconclusive: 8.2 µM [activator, single point] | –
18 | Oc1cccc(/C=N/Nc2ccc(Cl)nn2)c1O | inconclusive: 0.0092 µM [activator, full curve, poor fit] | –
19 | CC1CCN(S(=O)(=O)c2ccc(C(=O)Nc3nnc(-c4ccccn4)o3)cc2)CC1 | inconclusive: 16.4 µM [activator, single point] | –
20 | Oc1ccccc1-c1nc(NCCN2CCOCC2)c2ccccc2n1 | inconclusive: 25.9 µM [activator, partial curve, poor fit] | –
21 | CN1CCN(c2ccc(Cl)cc2NC(=O)/C=C/c2cccc(F)c2)CC1 | inconclusive: 29.1 µM [activator, single point] | –
22 | COc1ccc2[nH]c3c(c2c1)CCN1C(=O)C(CC(=O)NCCC2=CCCCC2)C[C@H](C(=O)N(C(C)C)C(C)C)[C@@]31C (stereo not given in full) | inconclusive: 29.1 µM [activator, single point] | –

Row | Structure (SMILES) | Potency | re-replication activation
23 | Cc1cc(C)cc(NC(=O)c2cc3c(=O)n4ccccc4nc3s2)c1 | active: 9.2 µM | –
24 | CCOC(=O)c1ccc(NC(=O)CSc2nc3sc(C(=O)O)c(C)c3c(=O)[nH]2)cc1 | inconclusive: 0.651 µM [activator, full curve, poor fit] | –
25 | N#Cc1ccccc1OCC(=O)NCC1(N2CCCCC2)CCCCC1 | inconclusive: 0.794 µM [activator, full curve, poor fit] | –
26 | CCOC(=O)c1c(O)c2cc(Cl)ccc2n(CC)c1=O | inconclusive: 3.26 µM [activator, single point] | –
27 | CN(Cc1cn(Cc2ccccc2)nc1-c1ccc2c(c1)OCO2)Cc1nccn1C | inactive | –
28 | C[C@@H]1NC(=O)[C@H](CCC(N)=O)NC(=O)c2cc([N+](=O)[O-])cc(I)c2NCC[C@@H](C(N)=O)NC1=O | inactive | –
29 | CCN(CC)S(=O)(=O)c1ccc(N2CCN(c3cccc(OC)c3)CC2)c([N+](=O)[O-])c1 | inactive | –
30 | Cc1cc(C2=NNC(=NC3CC3)SC2)c(C)n1-c1ccccc1 | inconclusive: 29.1 µM [activator, partial curve, poor fit] | –
31 | N#Cc1ccc(/C=N/NC(=O)c2cc(-c3cccs3)nc3ccccc23)cc1 | inconclusive: 29.1 µM [activator, single point] | –
32 | Cc1c(Cl)cccc1NC(=S)NCCCN(C)C | inactive | –
33 | Cc1cccc2c(N=O)c(O)n(CCc3ccccc3)c12 | inactive | –
34 | Cc1nn(C)c(C(=O)N/N=C/c2ccc(Br)cc2)c1Cl | inactive | –
35 | C=CCn1c(C)cc(-c2csc(NCC)n2)c1C | inconclusive: 0.116 µM [activator, full curve, poor fit] | –
36 | COc1ccc(C(=O)NNC(=O)Cc2nc3nc(C)cc(C)n3n2)cc1 | inactive | –
37 | Cc1ccc(-c2csc3ncnc(N4CCN(C(=O)c5ccco5)CC4)c23)cc1 | inactive | –
38 | CSc1ccc(/C=C/C(=O)c2ccc(NC(C)=O)cc2)cc1 | inconclusive: 16.4 µM [activator, single point] | –
39 | COc1cc(CCC(=O)OCC(=O)N(CC(C)C)C2CCS(=O)(=O)C2)cc(OC)c1OC (stereo not given) | inconclusive: 0.651 µM [activator, partial curve, poor fit] | –
40 | COc1cc(NC(=O)Nc2c(C)n(C)n(-c3ccccc3)c2=O)cc(OC)c1OC | inconclusive: 0.651 µM [activator, partial curve, poor fit] | –
41 | COc1ccc(C(=O)CSc2ccc(-c3ccc(C)cc3)nn2)cc1 | inconclusive: 25.9 µM [activator, partial curve, poor fit] | –
42 | O=c1[nH]c(=O)n(-c2ccc(F)cc2)c2c1C(C(F)(F)F)(C(F)(F)F)N=C(c1ccc(F)cc1)N2 | inconclusive: 16.4 µM [activator, single point] | –
43 | NC1CCN(c2nc3c(cc2F)c(=O)c(C(=O)O)cn3-c2ccc(F)cc2F)C1 (stereo not given) | inconclusive: 16.4 µM [activator, single point] and inconclusive: 13.3 µM [activator, full curve, poor fit] | –
44 | CCOC(=O)c1c(C)n(C)c2ccc(O)c(CN3CCC(C)CC3)c12 | inconclusive: 23.1 µM [activator, single point] | –

Row | Structure (SMILES) | Potency | re-replication activation
45 | Cc1ccc(CNc2ccc3c(c2)OCO3)cc1 | active: 23.1 µM | –
46 | C1=C(CCNCC2CC2)CCCC1 | inactive | –
47 | Cc1ccc(-c2csc3ncnc(-n4cnc5ccccc54)c23)cc1 | inconclusive: 18.4 µM [activator, single point] | –
48 | c1ccc(CC2CCN(c3nc4ccccc4n4cnnc34)CC2)cc1 | inconclusive: 32.6 µM [activator, single point] | –
49 | CC(=O)NC(C)c1cc(Cl)c2ccccc2c1O (stereo not given) | inactive | –
50 | CCN(CC)S(=O)(=O)c1ccc(C(=O)OC2CCCCC2CN(C)C)cc1 (stereo not given) | inconclusive: 0.461 µM [activator, full curve, poor fit] | –
51 | Cc1sc2nc(C(C)C)nc(SCC(=O)NCc3ccco3)c2c1C | inconclusive: 29.1 µM [activator, single point] | –
52 | O=C(CSc1nc(-c2ccc(F)cc2)cs1)N1CCOCC1 | inconclusive: 29.1 µM [activator, single point] | –
53 | Cc1cccc2c1-c1sc(C(=O)N3CCCCC3)cc1CO2 | inconclusive: 32.6 µM [activator, partial curve, poor fit] | –
54 | COCc1cc(C)nc(SCC(=O)Nc2cccc3cccnc23)c1C#N | inconclusive: 2.31 µM [activator, full curve, poor fit] | –
55 | CCOc1cc(/C=N/Nc2nncc(-c3ccccc3)n2)ccc1O | inconclusive: 0.13 µM [activator, partial curve, poor fit] | –
56 | COc1cc2c(C(=O)NCCN(C)C)cn(CC(C)C)c(=O)c2cc1OC | inactive | –
57 | CN(C)C(/C=C/Nc1ccc(O)cc1)=C(C#N)C#N | inconclusive: 6.51 µM [activator, single point] | –
58 | Cc1ccc(C)c(N2CCN(S(=O)(=O)c3ccc4c(c3)NC(=O)CS4)CC2)c1 | inconclusive: 18.4 µM [activator, single point] | –
59 | CCCCN(C(=O)CCC(=O)Nc1cc(C)on1)C(C(=O)NC1CCCC1)c1cccc(OC)c1 (stereo not given) | inconclusive: 29.1 µM [activator, single point] | –
60 | COC(=O)c1ccc(C(=O)OC)c(NC(=S)N2CCN(c3ccccc3)CC2)c1 | inconclusive: 29.1 µM [activator, single point] | –
61 | C/C(=N\NC(=O)c1c(C)nc2ccccn12)c1ccccc1F | inactive | –
62 | Cc1cc(/C=N/NC(=O)c2cccc(F)c2)c(C)n1-c1ccccc1 | inactive | –
63 | COc1cccc(C(=O)NC(C)CCc2ccccc2)c1 (stereo not given) | inconclusive: 4.61 µM [activator, full curve, poor fit] | –
64 | Cc1cc(C(=O)CN2C(=O)C(=O)N(Cc3ccccc3)C2=O)c(C)n1Cc1ccc(F)cc1 | inconclusive: 3.66 µM [activator, single point] | –
65 | CCCSc1nsc(NC(=O)C(c2ccccc2)c2ccccc2)n1 | inconclusive: 18.4 µM [activator, partial curve, poor fit] | –
